Experimental data taken from article doi:10.1101/2023.10.02.560568.
These are yes or no findings as the source states them, for the method shown. Binding seen in cells or lysates may run through a third protein. Some entries that bind do so weakly or less than the wild type. Tags and fused reporters may be left off the sequences shown.

The chains behind the UniProt entries cited, without tags or fusion partners.
UniProt Q9NX07: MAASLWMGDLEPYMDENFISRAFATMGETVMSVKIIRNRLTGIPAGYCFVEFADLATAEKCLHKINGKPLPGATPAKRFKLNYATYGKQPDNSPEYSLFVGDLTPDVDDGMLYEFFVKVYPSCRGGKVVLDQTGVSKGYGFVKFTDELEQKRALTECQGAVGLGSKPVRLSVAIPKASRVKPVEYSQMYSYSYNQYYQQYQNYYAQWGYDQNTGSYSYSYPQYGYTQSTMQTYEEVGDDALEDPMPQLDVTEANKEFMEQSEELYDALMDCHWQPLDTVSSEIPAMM

What was measured:
SECp43 = SECp43 (UniProt Q9NX07); assay: co-IP
[1] = molecular target: T1, selenocysteine-specific elongation factor EEFSEC (UniProt P57772); assay: co-IP
T1 sequence: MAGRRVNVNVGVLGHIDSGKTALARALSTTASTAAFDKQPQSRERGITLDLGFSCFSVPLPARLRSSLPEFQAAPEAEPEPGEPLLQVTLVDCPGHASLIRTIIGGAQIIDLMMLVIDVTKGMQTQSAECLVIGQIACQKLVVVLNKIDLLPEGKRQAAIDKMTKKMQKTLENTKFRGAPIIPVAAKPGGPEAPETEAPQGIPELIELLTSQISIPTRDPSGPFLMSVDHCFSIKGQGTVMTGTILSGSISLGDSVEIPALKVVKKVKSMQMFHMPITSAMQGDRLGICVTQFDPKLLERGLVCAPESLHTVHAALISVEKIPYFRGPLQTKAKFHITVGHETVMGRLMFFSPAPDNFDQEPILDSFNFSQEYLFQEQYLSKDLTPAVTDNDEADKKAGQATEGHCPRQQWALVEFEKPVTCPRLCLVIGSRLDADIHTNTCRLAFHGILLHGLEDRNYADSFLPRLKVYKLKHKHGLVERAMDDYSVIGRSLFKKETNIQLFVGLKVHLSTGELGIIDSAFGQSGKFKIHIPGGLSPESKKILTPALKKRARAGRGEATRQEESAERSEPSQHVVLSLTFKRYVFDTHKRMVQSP

B1: FTSJ1 (tagged, overexpressed) (enzyme, UniProt Q9UET6 1-329)
chain: MGRTSKDKRDVYYRLAKENGWRARSAFKLLQLDKEFQLFQGVTRAVDLCAAPGSWSQVLSQKIGGQGSGHVVAVDLQAMAPLPGVVQIQGDITQLSTAKEIIQHFKGCPADLVVCDGAPDVTGLHDVDEYMQAQLLLAALNIATHVLKPGGCFVAKIFRGRDVTLLYSQLQVFFSSVLCAKPRSSRNSSIEAFAVCQGYDPPEGFIPDLSKPLLDHSYDPDFNQLDGPTRIIVPFVTCGDLSSYDSDRSYPLDLEGGSEYKYTPPTQPPISPPYQEACTLKRKGQLAKEIRPQDCPISRVDTFPQPLAAPQCHTLLAPEMEDNEMSCSP
- binding (SECp43): binds
- binding [1]: binds
